Laboratory results published in patent publication US11512108 (dated 2022).
*: point of attachment. Boc = CC(C)(C)OC(=O)*; OtBu = CC(C)(C)O*

Test: general procedure: solution-phase peptide synthesis; 1-(trimethylsilyl)imidazole, Ti(Oi-Pr)4 catalyst
Settings: coupling step

Boc-GGGAA-OtBu
step yield: 99%
